Experimental data published in PMC9722916.
These are yes or no findings as the source states them, for the method shown. Some entries that bind do so weakly or less than the wild type. Tags and fused reporters may be left off the sequences shown.

Biological target: T1, rat TRPV2, C-terminally fused to GFP and a His8-tag (rat), Q9WUD2
T1 chain: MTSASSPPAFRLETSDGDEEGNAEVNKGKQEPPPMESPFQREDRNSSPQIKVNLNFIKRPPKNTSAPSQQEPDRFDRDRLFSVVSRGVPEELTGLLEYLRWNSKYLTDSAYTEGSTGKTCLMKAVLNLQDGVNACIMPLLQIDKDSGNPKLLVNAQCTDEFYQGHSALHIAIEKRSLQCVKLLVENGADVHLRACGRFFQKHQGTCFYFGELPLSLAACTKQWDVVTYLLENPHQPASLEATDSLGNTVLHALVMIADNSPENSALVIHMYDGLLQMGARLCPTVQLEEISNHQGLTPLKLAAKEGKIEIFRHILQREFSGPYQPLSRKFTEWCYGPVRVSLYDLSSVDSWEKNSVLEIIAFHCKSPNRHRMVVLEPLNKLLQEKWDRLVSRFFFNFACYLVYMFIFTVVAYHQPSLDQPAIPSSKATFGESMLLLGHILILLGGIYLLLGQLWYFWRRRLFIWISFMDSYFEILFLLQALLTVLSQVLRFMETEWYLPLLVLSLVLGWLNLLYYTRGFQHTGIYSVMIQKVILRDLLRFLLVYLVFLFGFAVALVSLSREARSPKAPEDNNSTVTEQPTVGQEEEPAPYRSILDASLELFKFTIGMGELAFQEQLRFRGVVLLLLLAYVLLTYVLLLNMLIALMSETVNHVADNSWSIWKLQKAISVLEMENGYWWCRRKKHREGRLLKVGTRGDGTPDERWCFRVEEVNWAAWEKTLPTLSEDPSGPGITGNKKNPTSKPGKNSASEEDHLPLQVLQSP
Assay: cryo-EM structure; purified rat TRPV2 in GDN (20 mM Tris 8.0, 150 mM NaCl, 0.4 mg/ml GDN), incubated with C16 (50 uM) and probenecid (2 mM), alone or in combination, at room temperature for 15 min; C4 symmetry (C16 and probenecid structures), C1 symmetry (C16+probenecid structures); both purified
Conditions: remark: other sources report otherwise

binding: binds
B1: rat TRPV2, C-terminally fused to GFP and a His8-tag, Q9WUD2 1-761 (natural protein)
chain: MTSASSPPAFRLETSDGDEEGNAEVNKGKQEPPPMESPFQREDRNSSPQIKVNLNFIKRPPKNTSAPSQQEPDRFDRDRLFSVVSRGVPEELTGLLEYLRWNSKYLTDSAYTEGSTGKTCLMKAVLNLQDGVNACIMPLLQIDKDSGNPKLLVNAQCTDEFYQGHSALHIAIEKRSLQCVKLLVENGADVHLRACGRFFQKHQGTCFYFGELPLSLAACTKQWDVVTYLLENPHQPASLEATDSLGNTVLHALVMIADNSPENSALVIHMYDGLLQMGARLCPTVQLEEISNHQGLTPLKLAAKEGKIEIFRHILQREFSGPYQPLSRKFTEWCYGPVRVSLYDLSSVDSWEKNSVLEIIAFHCKSPNRHRMVVLEPLNKLLQEKWDRLVSRFFFNFACYLVYMFIFTVVAYHQPSLDQPAIPSSKATFGESMLLLGHILILLGGIYLLLGQLWYFWRRRLFIWISFMDSYFEILFLLQALLTVLSQVLRFMETEWYLPLLVLSLVLGWLNLLYYTRGFQHTGIYSVMIQKVILRDLLRFLLVYLVFLFGFAVALVSLSREARSPKAPEDNNSTVTEQPTVGQEEEPAPYRSILDASLELFKFTIGMGELAFQEQLRFRGVVLLLLLAYVLLTYVLLLNMLIALMSETVNHVADNSWSIWKLQKAISVLEMENGYWWCRRKKHREGRLLKVGTRGDGTPDERWCFRVEEVNWAAWEKTLPTLSEDPSGPGITGNKKNPTSKPGKNSASEEDHLPLQVLQSP
